The source of these data is the supplement of paper PMC9433722.

Assay [1] concerns Saos-2. Description: cell viability (CCK-8) relative to DMSO control (% of control); higher = less cytotoxic. As to conditions: 10 µM; 48 h.
In assay [2] the test system is U2OS. The description is as above. The note with it: 10 µM; 48 h.

Where a name gives a salt, the structure may show the parent alone. Some of the results follow. Many values rest on one well or one pass, so single values are uncertain.

As for `NC(=O)c1cn(Cc2c(F)cccc2F)nn1` [Rufinamide], the cell viability in assay [1] was 113; in assay [2] it was 96.1.

Consider `O=P(O)(O)C(O)(Cn1ccnc1)P(=O)(O)O` [Zoledronic acid], for which the cell viability in assay [1] worked out at 56.4; in assay [2], 110.

In the case of `O=C1Nc2ccc(Cl)cc2[C@@](C#CC2CC2)(C(F)(F)F)O1` [Efavirenz], the cell viability was determined as 59.2 in assay [1] and 101 in assay [2].

As for `Cn1c(=O)c2nc[nH]c2n(C)c1=O` [Theophylline], the values for the cell viability in assay [1] and in assay [2] were 106 and 95.8, respectively.

Turning to `Cc1ccc(NC(=O)c2ccc(CN3CCN(C)CC3)cc2)cc1Nc1nccc(-c2cccnc2)n1` [Imatinib . mesylate], the cell viability in assay [1] turned out to be 52.4; in assay [2] it was 118.

Regarding `CCCC(=O)Nc1ccc(OCC(O)CNC(C)C)c(C(C)=O)c1` (stereo unspecified) [Acebutolol . Hydrochloride], the results for the cell viability in assay [1] and in assay [2] were 90.6 and 80.9, respectively.

On to `COc1c2occc2cc2ccc(=O)oc12` [Methoxsalen (Xanthotoxin)], for which the cell viability stood at 93.5 in assay [1] and 93.1 in assay [2].

Take `N[C@@H]1CONC1=O` [Cycloserine]: the cell viability in assay [1] turned out to be 113; in assay [2], 95.2.

Consider `CC[C@]1(O)C[C@@H]2CN(CCc3c([nH]c4ccccc34)[C@@](C(=O)OC)(c3cc4c(cc3OC)N(C)[C@H]3[C@@](O)(C(=O)OC)[C@H](OC(C)=O)[C@]5(CC)C=CCN6CC[C@]43[C@@H]65)C2)C1` [Vinblastine . sulfate], for which the cell viability in assay [1] was determined as 33.1; in assay [2], 60.1.

In the case of `CN(C)CCOc1ccc(/C(=C(/CCCl)c2ccccc2)c2ccccc2)cc1` [Toremifene Base], the cell viability amounted to 67.4 in assay [1] and 114 in assay [2].

Turning to `S=c1[nH]cnc2nc[nH]c12` [6-Mercaptopurine Monohydrate], the cell viability in assay [1] was determined as 85.9; in assay [2] it was 72.

Consider `C[C@H]1COc2c(N3CCN(C)CC3)c(F)cc3c(=O)c(C(=O)O)cn1c23` [Levofloxacin . hydrochloride], for which the cell viability in assay [1] came to 69.8; in assay [2] it was 97.4.

`C[C@H](Cn1cnc2c(N)ncnc21)OCP(=O)(O)O` [Tenofovir Hydrate]: the cell viability in assay [1] stood at 103; in assay [2], 90.9.

With `CC(=O)Oc1cc2c(s1)CCN(C(C(=O)C1CC1)c1ccccc1F)C2` (stereo unspecified) [Prasugrel], the results for the cell viability in assay [1] and in assay [2] were 106 and 83.4, respectively.

Take `COCCOC(=O)C1=C(C)NC(C)=C(C(=O)OC(C)C)C1c1cccc([N+](=O)[O-])c1` (stereo unspecified) [Nimodipine]: the results for the cell viability in assay [1] and in assay [2] were 57 and 116, respectively.

For the compound `Nc1nc(N)c2nc(-c3ccccc3)c(N)nc2n1` [Triamterene], the values for the cell viability in assay [1] and in assay [2] were 67.5 and 72.1, respectively.

Regarding `NC[C@@H]1O[C@H](O[C@H]2[C@@H](O)[C@H](O[C@@H]3[C@@H](O)[C@H](N)C[C@H](N)[C@H]3O[C@H]3O[C@H](CO)[C@@H](O)[C@H](O)[C@H]3N)O[C@@H]2CO)[C@H](N)[C@@H](O)[C@@H]1O` [Paromomycin Sulfate], the results for the cell viability in assay [1] and in assay [2] were 112 and 115, respectively.

Turning to `CCc1cccc2c3c([nH]c12)C(CC)(CC(=O)O)OCC3` (stereo unspecified) [Etodolac], the cell viability in assay [1] is 100; in assay [2], 92.6.

On to `C#C[C@]1(O)CC[C@H]2[C@@H]3CCC4=CCCC[C@@H]4[C@H]3C(=C)C[C@@]21CC` [Desogestrel], for which the cell viability in assay [1] is 120; in assay [2] it was 94.4.

`CO[C@H]1C[C@@H]2CC[C@@H](C)[C@@](O)(O2)C(=O)C(=O)N2CCCC[C@H]2C(=O)O[C@H]([C@H](C)C[C@@H]2CC[C@@H](OC(=O)C(C)(CO)CO)[C@H](OC)C2)CC(=O)[C@H](C)/C=C(\C)[C@@H](O)[C@@H](OC)C(=O)[C@H](C)C[C@H](C)/C=C/C=C/C=C/1C` [Temsirolimus]: the cell viability came to 92.6 in assay [1] and 53.1 in assay [2].

As for `CN(Cc1cnc2nc(N)nc(N)c2n1)c1ccc(C(=O)N[C@@H](CCC(=O)O)C(=O)O)cc1` [Methotrexate], the cell viability in assay [1] worked out at 66.9; in assay [2] it was 79.9.

For `CCCCc1oc2ccccc2c1C(=O)c1cc(I)c(OCCN(CC)CC)c(I)c1` [Amiodarone hydrochloride], the cell viability in assay [1] worked out at 58; in assay [2], 92.9.

With `CC(C(=O)O)c1ccc(-c2ccccc2)c(F)c1` (stereo unspecified) [Flurbiprofen], the cell viability in assay [1] was found to be 71.6; in assay [2], 100.

As for `CC(=O)O[C@]1(C(C)=O)CC[C@H]2[C@@H]3C[C@H](C)C4=CC(=O)CC[C@]4(C)[C@H]3CC[C@@]21C` [Medroxyprogesterone Acetate], the values for the cell viability in assay [1] and in assay [2] were 70 and 93.9, respectively.

In the case of `CCn1cc(C(=O)O)c(=O)c2cc(F)c(N3CCNCC3)cc21` [Norfloxacin], the values for the cell viability in assay [1] and in assay [2] were 72.4 and 79.2, respectively.

In the case of `COc1ccc(OC)c(C(O)CNC(=O)CN)c1` (stereo unspecified) [Midodrine·HCl], the values for the cell viability in assay [1] and in assay [2] were 110 and 111, respectively.

As for `COc1cc(Cc2cnc(N)nc2N)cc(OC)c1OC` [Trimethoprim], the results for the cell viability in assay [1] and in assay [2] were 63.5 and 107, respectively.

On to `CN[C@H](CC(C)C)C(=O)N[C@H]1C(=O)N[C@@H](CC(N)=O)C(=O)N[C@H]2C(=O)N[C@H]3C(=O)N[C@H](C(=O)N[C@H](C(=O)O)c4cc(O)cc(O)c4-c4cc3ccc4O)[C@H](O)c3ccc(c(Cl)c3)Oc3cc2cc(c3O[C@@H]2O[C@H](CO)[C@@H](O)[C@H](O)[C@H]2O[C@H]2C[C@](C)(N)[C@H](O)[C@H](C)O2)Oc2ccc(cc2Cl)[C@H]1O` [Vancomycin . hydrochloride], for which the cell viability came out at 134 in assay [1] and 83.9 in assay [2].
